Source: patent US8095350

Amino acid sequences for entries named in this document (tags omitted). A change or cut given only in a name is not applied to a line headed by its entry.
UniProt Q9GZX7: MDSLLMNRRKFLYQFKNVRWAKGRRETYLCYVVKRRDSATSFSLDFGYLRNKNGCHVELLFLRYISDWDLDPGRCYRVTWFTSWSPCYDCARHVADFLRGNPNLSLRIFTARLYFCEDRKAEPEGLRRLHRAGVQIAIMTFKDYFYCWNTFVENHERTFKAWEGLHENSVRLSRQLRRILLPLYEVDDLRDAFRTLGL

Biological target: GST-AID (activation-induced cytidine deaminase), wild type (UniProt Q9GZX7)
Experiment: enzyme reaction in vitro
Conditions: deamination; UDG/NaOH cleavage to 30-nt band; 25 nM DNA, 25 mM Tris pH 8.0, 50 mM NaCl, 37 C, 1 h; protein details: GST (pGEX-KG-AID vector); label: internal fluorescein-dT (before tga, near 5' end); single-stranded DNA

For “TAAAGGTGAAGAGAGGAGAGAGAAGTAAGCTGAAGAGAGAGAAGGAAGAGAGTGAAGGAG [deamination ssDNA substrate]”, the “activity on this sequence” value was “active”.
